# Measured values published in the supplement of paper PMC8728848.
# Some of the results follow.
# B1: Aap lectin (Staphylococcus epidermidis) (protein)
# chain: VNLNYSSPFMSLLSMPADSSSNNTKNTIDIPPTTVKGRDNYDFYGRVDIESNPTDLNATNLTRYNYGQPPGTTTAGAVQFKNQVSFDKDFDFNIRVANNRQSNTTGADGWGFMFSKKDGDDFLKNGGILREKGTPSAAGFRIDTGYYNNDPLDKIQKQAGQGYRGYGTFVKNDSQGNTSKVGSGTPSTDFLNYADNTTNDLDGKFHGQKLNNVNLKYNASNQTFTATYAGKTWTATLSELGLSPTDSYNFLVTSS
# Columns and labels:
# Assay in all cases: glycan array binding signal (z-score within array); higher = stronger binding
# Conditions in all cases: glycan notation: IUPAC condensed, linker removed
# [1] = target: GlcNAc(b1-4)GlcNAc(b1-4)GlcNAc(b1-4)GlcNAc(b1-4)GlcNAc(b1-4)GlcNAc
# Method in brief: (§1)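 Columns mapping to the same glycan were averaged after glycan names were converted to IUPAC-condensed notation. The data come from 3228 arrays in the Consortium for Functional Glycomics database, limited to those with an available protein sequence. Binding is reported as a within-array Z-score averaged across arrays of one protein sequence and across linkers.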
# [2] = target: GlcNAc(b1-4)[GlcNAc(b1-6)]GalNAc
# Method in brief: as §1
# [3] = target: GlcNAc(b1-6)Gal(b1-4)GlcNAc
# Method in brief: as §1
# [4] = target: GlcNAc(b1-6)GalNAc
# Method in brief: as §1
# [5] = target: GlcNAc6S(b1-3)Gal(b1-4)GlcNAc
# Method in brief: as §1
# [6] = target: Kdn(a2-3)Gal(b1-3)GalNAc
# Method in brief: as §1
# [7] = target: Kdn(a2-3)Gal(b1-3)GlcNAc
# Method in brief: as §1
# [8] = target: Kdn(a2-3)Gal(b1-4)Glc
# Method in brief: as §1
# [9] = target: Kdn(a2-3)Gal(b1-4)GlcNAc
# Method in brief: as §1
# [10] = target: Kdn(a2-3)Gal(b1-4)[Fuc(a1-3)]GlcNAc
# Method in brief: as §1
# [11] = target: Kdn(a2-6)Gal(b1-4)GlcNAc
# Method in brief: as §1
# [12] = target: Man(a1-2)Man(a1-2)Man(a1-3)Man
# Method in brief: as §1
# [13] = target: Man(a1-2)Man(a1-2)Man(a1-6)[Man(a1-3)]Man
# Method in brief: as §1
# [14] = target: Man(a1-2)Man(a1-3)Man
# Method in brief: as §1
# [15] = target: Man(a1-2)Man(a1-3)[Man(a1-2)Man(a1-6)]Man
# Method in brief: as §1
# [16] = target: Man(a1-2)Man(a1-3)[Man(a1-2)Man(a1-6)]Man(a1-6)[Man(a1-2)Man(a1-2)Man(a1-3)]Man
# Method in brief: as §1
# [17] = target: Man(a1-2)Man(a1-3)[Man(a1-2)Man(a1-6)]Man(a1-6)[Man(a1-2)Man(a1-2)Man(a1-3)]Man(b1-4)GlcNAc(b1-4)GlcNAc
# Method in brief: as §1
# [18] = target: Man(a1-2)Man(a1-3)[Man(a1-6)]Man(a1-6)[Man(a1-2)Man(a1-3)]Man(b1-4)GlcNAc(b1-4)GlcNAc
# Method in brief: as §1
# [19] = target: Man(a1-2)Man(a1-6)[Man(a1-3)]Man(a1-6)[Man(a1-2)Man(a1-2)Man(a1-3)]Man
# Method in brief: as §1
# [20] = target: Man(a1-2)Man(a1-6)[Man(a1-3)]Man(a1-6)[Man(a1-2)Man(a1-2)Man(a1-3)]Man(b1-4)GlcNAc(b1-4)GlcNAc
# Method in brief: as §1
# [21] = target: Man(a1-3)[Man(a1-6)]Man
# Method in brief: as §1
# [22] = target: Man(a1-3)[Man(a1-6)]Man(a1-6)[Man(a1-2)Man(a1-3)]Man(b1-4)GlcNAc(b1-4)GlcNAc
# Method in brief: as §1
# [23] = target: Man(a1-3)[Man(a1-6)]Man(a1-6)[Man(a1-3)]Man
# Method in brief: as §1
# [24] = target: Man(a1-3)[Man(a1-6)]Man(a1-6)[Man(a1-3)]Man(b1-4)GlcNAc(b1-4)GlcNAc
# Method in brief: as §1
# [25] = target: Man(a1-3)[Man(a1-6)]Man(b1-4)GlcNAc(b1-4)GlcNAc
# Method in brief: as §1
# [26] = target: Man(a1-3)[Man(a1-6)]Man(b1-4)GlcNAc(b1-4)[Fuc(a1-6)]GlcNAc
# Method in brief: as §1
# [27] = target: Man(a1-6)Man
# Method in brief: as §1
# [28] = target: Man(b1-4)GlcNAc
# Method in brief: as §1
# [29] = target: MurNAc(b1-4)GlcNAc
# Method in brief: as §1
# [30] = target: Neu5Ac(a2-3)Gal
# Method in brief: as §1
# [31] = target: Neu5Ac(a2-3)Gal(b1-3)GalNAc
# Method in brief: as §1
# [32] = target: Neu5Ac(a2-3)Gal(b1-3)GalNAc(b1-3)Gal(a1-4)Gal(b1-4)Glc
# Method in brief: as §1
# [33] = target: Neu5Ac(a2-3)Gal(b1-3)GalNAc(b1-4)[Neu5Ac(a2-3)]Gal(b1-4)Glc
# Method in brief: as §1
# [34] = target: Neu5Ac(a2-3)Gal(b1-3)GalNAc(b1-4)[Neu5Ac(a2-8)Neu5Ac(a2-3)]Gal(b1-4)Glc
# Method in brief: as §1
# [35] = target: Neu5Ac(a2-3)Gal(b1-3)GalNAc6S
# Method in brief: as §1
# [36] = target: Neu5Ac(a2-3)Gal(b1-3)GlcNAc
# Method in brief: as §1
# [37] = target: Neu5Ac(a2-3)Gal(b1-3)GlcNAc(b1-2)Man
# Method in brief: as §1
binder,measurement,setting,value
B1,glycan array binding signal (z-score),[1],0.264
same,glycan array binding signal (z-score),[2],-0.382
same,glycan array binding signal (z-score),[3],0.945
same,glycan array binding signal (z-score),[4],0.291
same,glycan array binding signal (z-score),[5],-0.674
same,glycan array binding signal (z-score),[6],1.08
same,glycan array binding signal (z-score),[7],-0.575
same,glycan array binding signal (z-score),[8],0.31
same,glycan array binding signal (z-score),[9],1.39
same,glycan array binding signal (z-score),[10],-0.275
same,glycan array binding signal (z-score),[11],-0.737
same,glycan array binding signal (z-score),[12],-0.879
same,glycan array binding signal (z-score),[13],0.535
same,glycan array binding signal (z-score),[14],-0.138
same,glycan array binding signal (z-score),[15],-0.905
same,glycan array binding signal (z-score),[16],-0.858
same,glycan array binding signal (z-score),[17],-0.884
same,glycan array binding signal (z-score),[18],-0.917
same,glycan array binding signal (z-score),[19],-0.62
same,glycan array binding signal (z-score),[20],0.518
same,glycan array binding signal (z-score),[21],-0.808
same,glycan array binding signal (z-score),[22],1.23
same,glycan array binding signal (z-score),[23],0.338
same,glycan array binding signal (z-score),[24],1.5
same,glycan array binding signal (z-score),[25],-0.71
same,glycan array binding signal (z-score),[26],-0.887
same,glycan array binding signal (z-score),[27],-0.62
same,glycan array binding signal (z-score),[28],0.586
same,glycan array binding signal (z-score),[29],-0.784
same,glycan array binding signal (z-score),[30],-0.729
same,glycan array binding signal (z-score),[31],-0.623
same,glycan array binding signal (z-score),[32],-0.878
same,glycan array binding signal (z-score),[33],-0.477
same,glycan array binding signal (z-score),[34],0.628
same,glycan array binding signal (z-score),[35],-0.872
same,glycan array binding signal (z-score),[36],-0.197
same,glycan array binding signal (z-score),[37],-0.27

# Two records drawn at random from the list so far:
binder,measurement,setting,value
B1,glycan array binding signal (z-score),[37],-0.27
same,glycan array binding signal (z-score),[17],-0.884
